Measured values from patent publication US4784988A (Spa Societa' Prodotti Antibiotici S.p.A., priority 1985, dated 1988).
Strings that start with PEPTIDE1 are HELM notation: dots part the residues, brackets hold end groups and non-standard residues.

Assay: general procedure: Boc solid-phase peptide synthesis; BOC-amino acid p-nitrophenyl esters; N-hydroxysuccinimide esters

Substance | step yield (late stage modification step) | step yield (coupling step) | other results
PEPTIDE1{N.T.D.G.S.T.D.Y}$$$$V2.0 |  |  | crude yield (whole synthesis, overall, calculated on the first amino acid condensed): 65%
TFA NH2 -Ala-(O-benzyl)Thr-Asn-(Nω -nitro)Arg benzyl ester | Yield=98.9% |  | 
BOC-Gln-Ala-(O-benzyl)Thr-Asn-(Nω -nitro)Arg benzyl ester |  | yield 91.7% | 
BOC-Ala-(O-benzyl)Thr-Asn-(Nω -nitro)Arg benzyl ester |  | yield 97.4% | 
NH2 -Gln-Ala-Thr-Asn-Arg-COOH | Yield 78% |  | 
TFA.NH2 -Gln-Ala-(O-benzyl)Thr-Asn-(Nω -nitro)Arg benzyl ester | Yield 100% |  | 
